Source: patent US6429304
These are yes or no findings as the source states them, for the method shown. In cells and extracts the contact can be indirect. Some entries that bind do so weakly or less than the wild type. Sequences can lack the tags named with a protein.

The chains behind the UniProt entries cited, without tags or fusion partners. Where a name states a change or a piece, a line headed by the entry shows the natural chain unless it says otherwise.
UniProt O61577: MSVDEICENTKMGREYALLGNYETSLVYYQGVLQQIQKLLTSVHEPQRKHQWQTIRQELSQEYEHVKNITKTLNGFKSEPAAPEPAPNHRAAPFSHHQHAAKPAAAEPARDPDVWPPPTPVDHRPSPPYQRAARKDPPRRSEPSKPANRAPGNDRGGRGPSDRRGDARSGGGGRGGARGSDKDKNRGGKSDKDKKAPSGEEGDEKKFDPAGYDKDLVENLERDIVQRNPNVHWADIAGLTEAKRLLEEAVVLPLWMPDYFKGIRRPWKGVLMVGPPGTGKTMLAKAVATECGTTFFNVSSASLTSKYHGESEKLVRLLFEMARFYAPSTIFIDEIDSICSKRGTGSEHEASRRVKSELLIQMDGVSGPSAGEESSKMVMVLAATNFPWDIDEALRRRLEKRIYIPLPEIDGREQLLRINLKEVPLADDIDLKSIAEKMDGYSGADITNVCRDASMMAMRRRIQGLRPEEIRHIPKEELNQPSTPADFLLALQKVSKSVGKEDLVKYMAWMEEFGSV

Biological target: in vitro translated S. purpuratus p60 katanin with 37 amino acid N-terminal S-Tag (Strongylocentrotus purpuratus) (UniProt O61577)
Experiment: co-translation in rabbit reticulocyte lysate, co-immunoprecipitation with anti-p60 antibody

binding: binds
B1: in vitro translated full-length S. purpuratus p80 katanin with 37 amino acid N-terminal S-Tag (protein, not shown: small tags and cut ends)
chain: MATKRAWKLQELVAHSSNVNCLALGPMSGRVMVTGGEDKKVNLWAVGKQNCIISLSGHTSPVDSVKFNSSEELVVAGSQSGTMKIYDLEPAKIVRTLTGHRNSIRCMDFHPFGEFVASGSTDTNVKLWDVRRKGCIYTYKGHSDQVNMIKFSPDGKWLVTASEDTTIKLWDLTMGKLFQEFKNHTGGVTGIEFHPNEFLLASGSSDRTVQFWDLETFQLVSSTSPGASAVRSISFHPDGSYLFCSSQDMLHAFGWEPIRCFDTFSVGWGKVADTVIASTQLIGASFNATNVSVYVADLSRMSTTGIAQEPQSQPSKTPSGGAEEVPSKPLTASGRKNFVRERPHTTSSKQRQPDVKSEPERQSPTQDEGVKDDDATDIKDPDSYAKIFSPKTRVDHSPERNAQPFPAPLDVPGAQEPEPFKHPPKPAAAAAVAPVSRAPAPSASDWQPAQANPAPNRVPAATKPVPAQEVAPSRKPDPISTIIPSDRNKPANLDMDAFLPPAHAQQAPRVNAPASRKQSDSERIEGLRKGHDSMCQVLSSRHRNLDVVRAIWTAGDAKTSVESVVNMKDQAILVDILNIMLLKKSLWNLDMCVVVLPRLKELLSSKYENYVHTSCACLKLILKNFTSLFNQNIKCPPSGIDITREERYNKCSKCYSYLIATRGYVEEKQHVSGKLGSSFRELHLLLDQLE
